The other results are listed elsewhere or left out.

Protein sequences, listed by entry. Tags and fused reporters are not part of them. Lines headed by an entry give the natural chain unless they say otherwise; changes in a name come on top.
UniProt Q9C0B0: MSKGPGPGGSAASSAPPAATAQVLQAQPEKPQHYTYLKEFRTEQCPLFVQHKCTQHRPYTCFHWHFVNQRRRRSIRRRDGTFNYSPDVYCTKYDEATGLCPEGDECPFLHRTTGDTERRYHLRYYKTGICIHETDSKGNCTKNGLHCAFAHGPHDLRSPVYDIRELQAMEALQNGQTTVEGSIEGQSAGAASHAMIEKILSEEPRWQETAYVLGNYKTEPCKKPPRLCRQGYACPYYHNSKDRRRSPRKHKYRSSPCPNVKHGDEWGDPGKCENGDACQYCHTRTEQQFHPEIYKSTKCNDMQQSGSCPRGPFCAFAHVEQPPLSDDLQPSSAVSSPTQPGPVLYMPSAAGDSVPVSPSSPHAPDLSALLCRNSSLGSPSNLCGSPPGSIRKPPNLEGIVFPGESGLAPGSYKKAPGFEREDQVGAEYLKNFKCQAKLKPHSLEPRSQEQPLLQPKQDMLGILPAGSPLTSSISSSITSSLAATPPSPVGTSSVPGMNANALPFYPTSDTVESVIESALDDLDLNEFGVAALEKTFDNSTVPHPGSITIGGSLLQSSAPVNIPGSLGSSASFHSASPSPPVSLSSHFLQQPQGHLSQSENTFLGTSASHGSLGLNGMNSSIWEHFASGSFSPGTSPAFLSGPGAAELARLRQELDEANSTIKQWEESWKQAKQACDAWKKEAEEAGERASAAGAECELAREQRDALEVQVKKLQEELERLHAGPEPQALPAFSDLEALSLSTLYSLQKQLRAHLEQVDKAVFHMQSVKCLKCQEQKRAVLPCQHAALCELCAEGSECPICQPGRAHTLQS
UniProt P14927: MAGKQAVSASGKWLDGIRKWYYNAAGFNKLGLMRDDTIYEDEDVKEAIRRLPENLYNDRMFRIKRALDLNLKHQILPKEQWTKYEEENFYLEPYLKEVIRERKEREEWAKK
UniProt Q9Y6I4: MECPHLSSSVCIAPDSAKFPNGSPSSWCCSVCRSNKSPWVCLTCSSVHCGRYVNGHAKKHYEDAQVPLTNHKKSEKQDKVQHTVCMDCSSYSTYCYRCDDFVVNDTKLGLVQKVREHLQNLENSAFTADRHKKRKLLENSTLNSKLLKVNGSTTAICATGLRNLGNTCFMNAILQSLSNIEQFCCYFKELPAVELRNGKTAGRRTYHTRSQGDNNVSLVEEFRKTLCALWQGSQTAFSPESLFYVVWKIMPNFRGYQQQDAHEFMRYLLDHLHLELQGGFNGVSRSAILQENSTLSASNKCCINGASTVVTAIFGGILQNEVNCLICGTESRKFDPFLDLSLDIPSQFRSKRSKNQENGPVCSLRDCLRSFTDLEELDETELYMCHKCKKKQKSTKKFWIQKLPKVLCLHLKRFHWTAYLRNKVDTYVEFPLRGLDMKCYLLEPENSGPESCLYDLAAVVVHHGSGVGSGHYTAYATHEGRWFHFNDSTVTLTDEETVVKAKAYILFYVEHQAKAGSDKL
UniProt Q9BVJ6: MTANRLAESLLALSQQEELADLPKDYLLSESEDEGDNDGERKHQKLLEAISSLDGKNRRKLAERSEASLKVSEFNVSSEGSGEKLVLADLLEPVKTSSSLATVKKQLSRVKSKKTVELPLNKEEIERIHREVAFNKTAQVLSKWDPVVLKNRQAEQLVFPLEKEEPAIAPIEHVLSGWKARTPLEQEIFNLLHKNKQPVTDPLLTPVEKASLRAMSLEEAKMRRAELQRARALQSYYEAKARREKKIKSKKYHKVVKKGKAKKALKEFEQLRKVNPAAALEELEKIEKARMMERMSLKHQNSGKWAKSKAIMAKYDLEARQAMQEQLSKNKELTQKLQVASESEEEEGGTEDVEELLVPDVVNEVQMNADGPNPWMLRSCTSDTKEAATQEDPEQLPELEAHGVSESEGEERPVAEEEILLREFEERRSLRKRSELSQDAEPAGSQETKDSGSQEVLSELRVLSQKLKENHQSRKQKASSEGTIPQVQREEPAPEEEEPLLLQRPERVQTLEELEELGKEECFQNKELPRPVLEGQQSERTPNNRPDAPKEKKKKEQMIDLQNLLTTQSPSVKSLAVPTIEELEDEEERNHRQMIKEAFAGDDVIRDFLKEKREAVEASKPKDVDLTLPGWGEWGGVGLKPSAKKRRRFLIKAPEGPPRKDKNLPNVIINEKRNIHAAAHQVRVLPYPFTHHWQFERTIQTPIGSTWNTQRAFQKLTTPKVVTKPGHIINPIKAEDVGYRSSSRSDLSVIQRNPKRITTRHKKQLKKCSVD
UniProt P26640: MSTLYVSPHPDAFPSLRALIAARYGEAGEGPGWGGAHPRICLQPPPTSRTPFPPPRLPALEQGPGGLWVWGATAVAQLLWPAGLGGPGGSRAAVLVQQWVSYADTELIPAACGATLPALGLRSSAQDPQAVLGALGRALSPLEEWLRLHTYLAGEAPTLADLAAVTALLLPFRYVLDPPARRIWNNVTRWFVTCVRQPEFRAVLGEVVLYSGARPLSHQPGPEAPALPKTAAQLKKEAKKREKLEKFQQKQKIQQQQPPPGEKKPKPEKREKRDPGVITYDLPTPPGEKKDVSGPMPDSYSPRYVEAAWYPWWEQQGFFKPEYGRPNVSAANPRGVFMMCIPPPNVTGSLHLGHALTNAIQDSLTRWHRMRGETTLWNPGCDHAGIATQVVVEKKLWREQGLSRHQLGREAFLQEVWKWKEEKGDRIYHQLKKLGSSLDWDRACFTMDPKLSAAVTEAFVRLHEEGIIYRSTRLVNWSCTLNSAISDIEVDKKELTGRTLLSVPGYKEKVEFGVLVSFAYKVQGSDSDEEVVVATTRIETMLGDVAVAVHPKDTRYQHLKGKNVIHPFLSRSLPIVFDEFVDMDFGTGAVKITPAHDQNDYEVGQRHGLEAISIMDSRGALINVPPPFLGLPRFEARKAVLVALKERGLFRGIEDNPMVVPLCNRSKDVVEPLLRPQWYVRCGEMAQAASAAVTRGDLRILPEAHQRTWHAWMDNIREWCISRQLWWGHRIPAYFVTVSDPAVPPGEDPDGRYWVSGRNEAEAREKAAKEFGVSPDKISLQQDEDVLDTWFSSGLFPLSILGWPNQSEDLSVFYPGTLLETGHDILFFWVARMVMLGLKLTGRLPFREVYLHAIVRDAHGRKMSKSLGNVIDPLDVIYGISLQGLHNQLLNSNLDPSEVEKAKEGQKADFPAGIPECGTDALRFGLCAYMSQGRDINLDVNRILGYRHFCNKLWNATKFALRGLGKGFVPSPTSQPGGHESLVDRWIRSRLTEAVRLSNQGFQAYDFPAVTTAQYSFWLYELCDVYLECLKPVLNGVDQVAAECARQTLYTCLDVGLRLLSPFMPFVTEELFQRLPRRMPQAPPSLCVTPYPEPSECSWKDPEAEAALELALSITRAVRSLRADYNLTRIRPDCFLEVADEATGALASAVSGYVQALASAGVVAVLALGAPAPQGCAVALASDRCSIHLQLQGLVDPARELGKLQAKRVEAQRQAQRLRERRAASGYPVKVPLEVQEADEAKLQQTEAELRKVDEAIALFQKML
UniProt Q86UV5: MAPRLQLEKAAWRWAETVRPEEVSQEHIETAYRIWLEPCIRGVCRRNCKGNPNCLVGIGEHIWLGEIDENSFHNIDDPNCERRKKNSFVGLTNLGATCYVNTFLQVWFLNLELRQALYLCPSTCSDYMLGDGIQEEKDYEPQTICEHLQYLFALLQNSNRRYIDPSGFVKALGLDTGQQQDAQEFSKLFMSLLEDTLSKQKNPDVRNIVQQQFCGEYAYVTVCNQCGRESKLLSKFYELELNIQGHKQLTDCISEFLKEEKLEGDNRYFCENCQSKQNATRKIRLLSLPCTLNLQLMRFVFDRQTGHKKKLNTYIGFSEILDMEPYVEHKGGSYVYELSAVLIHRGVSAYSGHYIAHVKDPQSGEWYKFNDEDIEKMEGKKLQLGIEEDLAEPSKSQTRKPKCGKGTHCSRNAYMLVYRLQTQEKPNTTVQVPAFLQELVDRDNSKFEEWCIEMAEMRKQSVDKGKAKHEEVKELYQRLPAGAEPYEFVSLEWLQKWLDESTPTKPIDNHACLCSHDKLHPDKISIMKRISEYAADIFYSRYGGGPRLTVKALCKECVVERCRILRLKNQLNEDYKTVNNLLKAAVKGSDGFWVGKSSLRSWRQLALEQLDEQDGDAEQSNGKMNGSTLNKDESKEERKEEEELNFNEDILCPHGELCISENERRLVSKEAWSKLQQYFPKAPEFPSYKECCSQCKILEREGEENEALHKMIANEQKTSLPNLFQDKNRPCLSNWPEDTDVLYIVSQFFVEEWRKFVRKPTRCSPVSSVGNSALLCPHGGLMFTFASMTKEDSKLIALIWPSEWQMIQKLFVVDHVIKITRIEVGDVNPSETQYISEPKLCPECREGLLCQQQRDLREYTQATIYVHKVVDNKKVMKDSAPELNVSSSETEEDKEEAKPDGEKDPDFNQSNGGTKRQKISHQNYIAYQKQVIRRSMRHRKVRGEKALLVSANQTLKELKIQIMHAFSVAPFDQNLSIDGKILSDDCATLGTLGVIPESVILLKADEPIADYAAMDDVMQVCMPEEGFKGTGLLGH
UniProt P15498: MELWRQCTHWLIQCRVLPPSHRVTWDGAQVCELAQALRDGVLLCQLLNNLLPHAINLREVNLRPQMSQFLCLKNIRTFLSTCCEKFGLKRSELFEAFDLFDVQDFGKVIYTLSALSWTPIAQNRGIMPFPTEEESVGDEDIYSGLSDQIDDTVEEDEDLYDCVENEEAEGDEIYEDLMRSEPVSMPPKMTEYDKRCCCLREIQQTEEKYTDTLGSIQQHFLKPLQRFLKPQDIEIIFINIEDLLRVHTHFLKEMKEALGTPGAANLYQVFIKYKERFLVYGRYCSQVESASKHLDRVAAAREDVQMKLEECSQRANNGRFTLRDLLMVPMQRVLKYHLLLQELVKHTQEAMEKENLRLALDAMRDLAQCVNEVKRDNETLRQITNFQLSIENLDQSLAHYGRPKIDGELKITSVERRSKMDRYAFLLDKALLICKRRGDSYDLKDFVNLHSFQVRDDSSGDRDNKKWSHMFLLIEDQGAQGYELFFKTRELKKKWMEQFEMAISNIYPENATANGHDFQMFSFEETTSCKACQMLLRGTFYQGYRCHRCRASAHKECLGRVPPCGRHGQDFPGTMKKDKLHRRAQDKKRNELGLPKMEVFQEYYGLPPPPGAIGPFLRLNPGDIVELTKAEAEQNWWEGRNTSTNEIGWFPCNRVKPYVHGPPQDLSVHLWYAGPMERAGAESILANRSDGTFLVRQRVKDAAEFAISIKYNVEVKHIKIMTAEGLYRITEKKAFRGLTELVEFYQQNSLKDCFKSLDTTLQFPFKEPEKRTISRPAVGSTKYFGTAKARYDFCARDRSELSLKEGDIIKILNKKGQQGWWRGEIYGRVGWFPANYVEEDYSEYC
UniProt O14957: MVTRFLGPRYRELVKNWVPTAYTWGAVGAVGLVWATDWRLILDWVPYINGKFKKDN
UniProt Q14694, whole entry, looked up: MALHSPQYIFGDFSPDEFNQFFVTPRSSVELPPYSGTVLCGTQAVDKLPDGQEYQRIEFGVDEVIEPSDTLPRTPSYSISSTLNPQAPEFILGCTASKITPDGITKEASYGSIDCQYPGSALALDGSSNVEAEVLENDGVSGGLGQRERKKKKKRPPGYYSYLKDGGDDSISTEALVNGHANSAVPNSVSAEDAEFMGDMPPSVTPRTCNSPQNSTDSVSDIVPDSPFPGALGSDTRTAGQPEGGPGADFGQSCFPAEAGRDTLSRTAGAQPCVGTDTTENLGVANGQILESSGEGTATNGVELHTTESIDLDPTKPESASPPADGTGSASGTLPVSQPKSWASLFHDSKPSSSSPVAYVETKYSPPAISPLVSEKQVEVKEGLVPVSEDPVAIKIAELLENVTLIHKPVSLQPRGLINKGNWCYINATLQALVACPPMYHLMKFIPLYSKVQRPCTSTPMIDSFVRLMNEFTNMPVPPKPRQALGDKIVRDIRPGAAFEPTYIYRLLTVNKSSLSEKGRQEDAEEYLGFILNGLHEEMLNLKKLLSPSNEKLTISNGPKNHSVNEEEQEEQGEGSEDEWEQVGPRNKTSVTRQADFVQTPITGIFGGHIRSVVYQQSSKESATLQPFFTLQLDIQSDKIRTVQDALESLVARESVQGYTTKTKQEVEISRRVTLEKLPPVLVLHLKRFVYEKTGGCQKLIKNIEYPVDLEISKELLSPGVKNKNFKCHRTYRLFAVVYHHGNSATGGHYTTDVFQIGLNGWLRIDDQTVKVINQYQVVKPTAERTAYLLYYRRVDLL
UniProt Q9P0L0: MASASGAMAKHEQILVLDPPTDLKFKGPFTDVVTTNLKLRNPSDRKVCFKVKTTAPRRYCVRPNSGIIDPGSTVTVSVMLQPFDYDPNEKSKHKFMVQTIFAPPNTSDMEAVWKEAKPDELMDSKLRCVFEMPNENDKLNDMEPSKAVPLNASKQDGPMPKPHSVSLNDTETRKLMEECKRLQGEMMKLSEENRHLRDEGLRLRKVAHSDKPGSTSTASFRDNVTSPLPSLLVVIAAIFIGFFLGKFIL
UniProt P63027, whole entry, looked up: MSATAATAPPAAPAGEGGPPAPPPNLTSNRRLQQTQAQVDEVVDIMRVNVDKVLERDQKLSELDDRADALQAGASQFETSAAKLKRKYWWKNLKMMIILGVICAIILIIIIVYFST

Compound in the assay: CC1=CC=C(C=C1)SC2=C3C=C(SC3=CN=C2)C(=O)N
The experiment in a line: log2 fold change, soluble protein after heating vs DMSO (PISA); higher = thermal stabilisation; K562 lysate, 10 uM; active = over 0.2 and 3.5 SD of the protein, either way, in both replicates (recomputed). A digest of the protocol:
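The values are log-two fold changes in thermal stability compared with solvent controls and come from duplicates. They were obtained by TMTpro 16plex LC-MS/MS, with channel sums equalised, on the supernatant after 21,000xg for 90 min. That supernatant came from crude K562 extract at 1 mg/mL protein treated with 10 μM compound for 30 min, heated for 3 min across 48°C-58°C, pooled and brought to 0.5% NP-40 at 4°C.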
Take UVRAG (UniProt Q9P2Y5): the log2 fold change was inactive: -0.045.
Take UNK (UniProt Q9C0B0): the log2 fold change is inactive: -0.017.
In the case of USF1 (UniProt P22415), the log2 fold change was inactive: -0.019.
With UQCRB (UniProt P14927), the log2 fold change is inactive: -0.018.
The same measure for VASP (UniProt P50552): inactive: 0.01; for USP11 (UniProt P51784): inactive: 0.026.
The same measure for USP3 (UniProt Q9Y6I4): inactive: -0.025.
The result for VIPAS39 (UniProt Q9H9C1) reads inactive: -0.074; that for UTP14A (UniProt Q9BVJ6), inactive: -0.014.
In the case of VAV3 isoform 4 (UniProt Q9UKW4), the log2 fold change is inactive: 0.058.
Turning to VIRMA (UniProt Q69YN4), the log2 fold change was inactive: -0.011.
As for UTP6 (UniProt Q9NYH9), the log2 fold change was inactive: -0.26.
Take VCPIP1 (UniProt Q96JH7): the log2 fold change is inactive: -0.017.
The result for VARS (UniProt P26640) reads inactive: 0.035; that for UFD1 isoform 1 (UniProt Q92890), inactive: -0.027.
As to USP13 (UniProt Q92995), the log2 fold change was inactive: -0.012.
The result for VCP (UniProt P55072) reads inactive: -0.012; that for USP48 (UniProt Q86UV5), inactive: -0.227.
The same measure for UTP15 (UniProt Q8TED0): inactive: -0.002; for VANGL1 (UniProt Q8TAA9): inactive: 0.007; for VAV1 (UniProt P15498): inactive: 0.082.
For UTP4 (UniProt Q969X6), the log2 fold change is inactive: 0.003.
The result for UPRT (UniProt Q96BW1) reads inactive: 0.074; that for USP8 (UniProt P40818), inactive: 0.009; that for VBP1 (UniProt P61758), inactive: -0.014.
The result for VEZF1 (UniProt Q14119) reads inactive: 0.036; that for ULBP1 (UniProt Q9BZM6), inactive: 0.001; that for UQCR11 (UniProt O14957), inactive: 0.045.
The same measure for USP10 isoform 2 (UniProt Q14694): inactive: 0.008; for VAPA (UniProt Q9P0L0): inactive: 0.029.
Consider UXT isoform 2 (UniProt Q9UBK9), for which the log2 fold change was inactive: -0.032.
The result for VAMP2 (UniProt P63027) reads inactive: 0.035.

Source of the values: the supplement of paper PMC10849652.
